SMILES strings stand for the structures. This is one part of the list.

The test concerns phosphomevalonate kinase (Streptococcus pneumoniae D39). The test is described as follows: phosphomevalonate kinase enzyme inhibition – biochemical, mevalonate pathway, pilot trial included, primary screen (AID 539).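 Further: 0% = full reaction with DMSO carrier and 100% = background rate without enzyme reaction.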 To be noted: purified PMK, PK/LDH-coupled NADH absorbance 340 nm; measured here: pilot screen replicates; at 10 µM; stronger effect = higher value.
For the molecule `Fc1ccccc1NC1CCN(Cc2ccccc2)CC1`, the inhibition – broadly, how much of the control response was suppressed – stood at 0%.
